Laboratory results taken from article PMC3747992.
No constants are given. Whether binding was seen depends on the method and setting. In cells and extracts the contact can be indirect. Some results given as binding are weak or reduced against the parent protein; the word gives no strength.

Chains of the proteins cited; added tags and fusions are not shown.
UniProt P40337: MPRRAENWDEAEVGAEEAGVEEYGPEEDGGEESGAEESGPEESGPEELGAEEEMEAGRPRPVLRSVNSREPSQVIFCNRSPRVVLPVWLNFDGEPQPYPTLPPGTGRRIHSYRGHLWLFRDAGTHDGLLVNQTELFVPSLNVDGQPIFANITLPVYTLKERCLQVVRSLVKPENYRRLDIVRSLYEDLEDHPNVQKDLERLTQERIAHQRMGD

Assays:
[1] = biological target: T1, heterogeneous nuclear ribonucleoprotein L (hnRNP L), endogenous (human (endogenous in U937 and primary PBM)) (UniProt P14866); assay: co-IP; IP with anti-hnRNP L antibody from lysates of U937 cells and primary human PBM treated with IFN-γ in normoxia or hypoxia for 24 h; lysates with or without RNase A; immunoblot for hnRNP A2/B1, DRBP76, VHL; also after HA-VHL overexpression in hypoxia (Figure S7)
T1 sequence: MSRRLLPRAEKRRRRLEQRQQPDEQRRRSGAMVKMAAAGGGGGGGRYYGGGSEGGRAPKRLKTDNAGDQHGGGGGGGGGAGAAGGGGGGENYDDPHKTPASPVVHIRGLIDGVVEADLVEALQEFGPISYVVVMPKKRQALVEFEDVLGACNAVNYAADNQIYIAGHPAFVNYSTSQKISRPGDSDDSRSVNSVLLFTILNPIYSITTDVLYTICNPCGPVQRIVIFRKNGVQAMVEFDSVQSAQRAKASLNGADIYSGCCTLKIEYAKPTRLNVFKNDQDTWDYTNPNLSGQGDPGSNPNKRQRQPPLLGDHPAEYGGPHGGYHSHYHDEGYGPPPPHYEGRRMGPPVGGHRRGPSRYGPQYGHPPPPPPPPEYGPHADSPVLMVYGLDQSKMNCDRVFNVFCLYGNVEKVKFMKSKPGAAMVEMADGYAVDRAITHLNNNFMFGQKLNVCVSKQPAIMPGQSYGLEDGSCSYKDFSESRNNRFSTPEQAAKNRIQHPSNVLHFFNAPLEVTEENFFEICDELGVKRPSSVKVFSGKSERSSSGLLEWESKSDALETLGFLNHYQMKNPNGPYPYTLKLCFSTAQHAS

[2] = biological target: T1, heterogeneous nuclear ribonucleoprotein L (hnRNP L), endogenous (human (endogenous in U937 and primary PBM)); assay: condition: only hypoxia for 24 h in the presence of IFN-γ; co-IP; IP with anti-hnRNP L antibody from lysates of U937 cells kept in hypoxia for 24 h with IFN-γ; immunoblot for VHL

binding [1]: binds
binding [2]: no binding
Substance: von Hippel-Lindau protein (VHL), endogenous (from UniProt P40337 1-213)
